# The supplement of paper PMC8728848
# The other results are listed elsewhere or left out.
# B1: Lb MiSSP8 (Laccaria bicolor) (protein)
# chain: MYFHTLFACATLMLITTAHASPTVINSLDSRKADLNGDVEARHAADWRRDSDWRRDSDWRRDSDWRRDSD
# Tests used:
# Assay in all cases: glycan array binding signal (z-score within array); higher = stronger binding
# Settings in all cases: glycan notation: IUPAC condensed, linker removed
# [1] = molecular target: Neu5Ac(a2-3)Gal(b1-3)GalNAc
# Summary of the method: (§1)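 Glycan array data were curated from 3228 arrays in the Consortium for Functional Glycomics database and kept only where the protein sequence was available. Glycan names were converted to IUPAC-condensed notation, and columns mapping to the same glycan were averaged. The binding signal is a within-array Z-score, averaged across arrays of the same protein sequence at different concentrations or buffers and across linkers. Negative Z-scores can be read as non-binding.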
# [2] = molecular target: Neu5Ac(a2-3)Gal(b1-3)GalNAc(b1-3)Gal(a1-4)Gal(b1-4)Glc
# Summary of the method: as §1
# [3] = molecular target: Neu5Ac(a2-3)Gal(b1-3)GalNAc(b1-4)Gal(b1-4)Glc
# Summary of the method: as §1
# [4] = molecular target: Neu5Ac(a2-3)Gal(b1-3)GalNAc(b1-4)[Neu5Ac(a2-3)]Gal(b1-4)Glc
# Summary of the method: as §1
# [5] = molecular target: Neu5Ac(a2-3)Gal(b1-3)GalNAc(b1-4)[Neu5Ac(a2-8)Neu5Ac(a2-3)]Gal(b1-4)Glc
# Summary of the method: as §1
# [6] = molecular target: Neu5Ac(a2-3)Gal(b1-3)GalNAc6S
# Summary of the method: as §1
# [7] = molecular target: Neu5Ac(a2-3)Gal(b1-3)GlcNAc
# Summary of the method: as §1
# [8] = molecular target: Neu5Ac(a2-3)Gal(b1-3)GlcNAc(b1-2)Man
# Summary of the method: as §1
# [9] = molecular target: Neu5Ac(a2-3)Gal(b1-3)GlcNAc(b1-2)Man(a1-3)[GlcNAc(b1-4)][Neu5Ac(a2-3)Gal(b1-3)GlcNAc(b1-2)Man(a1-6)]Man(b1-4)GlcNAc(b1-4)GlcNAc
# Summary of the method: as §1
# [10] = molecular target: Neu5Ac(a2-3)Gal(b1-3)GlcNAc(b1-2)Man(a1-3)[Neu5Ac(a2-3)Gal(b1-3)GlcNAc(b1-2)Man(a1-6)]Man(b1-4)GlcNAc(b1-4)GlcNAc
# Summary of the method: as §1
# [11] = molecular target: Neu5Ac(a2-3)Gal(b1-3)GlcNAc(b1-2)[Neu5Ac(a2-3)Gal(b1-3)GlcNAc(b1-4)]Man(a1-6)[Neu5Ac(a2-3)Gal(b1-3)GlcNAc(b1-2)Man(a1-3)]Man(b1-4)GlcNAc(b1-4)GlcNAc
# Summary of the method: as §1
# [12] = molecular target: Neu5Ac(a2-3)Gal(b1-3)GlcNAc(b1-3)Gal(b1-3)GlcNAc
# Summary of the method: as §1
# [13] = molecular target: Neu5Ac(a2-3)Gal(b1-3)GlcNAc(b1-3)Gal(b1-4)GlcNAc
# Summary of the method: as §1
# [14] = molecular target: Neu5Ac(a2-3)Gal(b1-3)GlcNAc(b1-3)GalNAc
# Summary of the method: as §1
# [15] = molecular target: Neu5Ac(a2-3)Gal(b1-3)GlcNAc(b1-6)GalNAc
# Summary of the method: as §1
# [16] = molecular target: Neu5Ac(a2-3)Gal(b1-3)GlcNAc6S
# Summary of the method: as §1
# [17] = molecular target: Neu5Ac(a2-3)Gal(b1-3)[Fuc(a1-4)]GlcNAc
# Summary of the method: as §1
# [18] = molecular target: Neu5Ac(a2-3)Gal(b1-3)[Fuc(a1-4)]GlcNAc(b1-3)Gal(b1-3)[Fuc(a1-4)]GlcNAc
# Summary of the method: as §1
# [19] = molecular target: Neu5Ac(a2-3)Gal(b1-3)[Fuc(a1-4)]GlcNAc(b1-3)Gal(b1-4)[Fuc(a1-3)]GlcNAc
# Summary of the method: as §1
# [20] = molecular target: Neu5Ac(a2-3)Gal(b1-3)[GlcNAc(b1-6)]GalNAc
# Summary of the method: as §1
# [21] = molecular target: Neu5Ac(a2-3)Gal(b1-3)[Neu5Ac(a2-6)]GalNAc
# Summary of the method: as §1
# [22] = molecular target: Neu5Ac(a2-3)Gal(b1-3)[Neu5Ac(a2-6)]GlcNAc(b1-3)[Fuc(a1-3)[Gal(b1-4)]GlcNAc(b1-6)]Gal(b1-4)Glc
# Summary of the method: as §1
# [23] = molecular target: Neu5Ac(a2-3)Gal(b1-3)]Neu5Ac(a2-3)Gal(b1-4)]GlcNAc
# Summary of the method: as §1
# Neu5Ac(a2-3)Gal(b1-4)Glc = molecular target: Neu5Ac(a2-3)Gal(b1-4)Glc
# Summary of the method: as §1
# [24] = molecular target: Neu5Ac(a2-3)Gal(b1-4)GlcNAc
# Summary of the method: as §1
# [25] = molecular target: Neu5Ac(a2-3)Gal(b1-4)GlcNAc(b1-2)Man
# Summary of the method: as §1
# [26] = molecular target: Neu5Ac(a2-3)Gal(b1-4)GlcNAc(b1-2)Man(a1-3)[GlcNAc(b1-4)][Neu5Ac(a2-3)Gal(b1-4)GlcNAc(b1-2)Man(a1-6)]Man(b1-4)GlcNAc(b1-4)GlcNAc
# Summary of the method: as §1
# [27] = molecular target: Neu5Ac(a2-3)Gal(b1-4)GlcNAc(b1-2)Man(a1-3)[Neu5Ac(a2-3)Gal(b1-4)GlcNAc(b1-2)Man(a1-6)]Man(b1-4)GlcNAc(b1-4)GlcNAc
# Summary of the method: as §1
# [28] = molecular target: Neu5Ac(a2-3)Gal(b1-4)GlcNAc(b1-2)Man(a1-3)[Neu5Ac(a2-3)Gal(b1-4)GlcNAc(b1-2)Man(a1-6)]Man(b1-4)GlcNAc(b1-4)[Fuc(a1-6)]GlcNAc
# Summary of the method: as §1
# [29] = molecular target: Neu5Ac(a2-3)Gal(b1-4)GlcNAc(b1-2)Man(a1-3)[Neu5Ac(a2-6)Gal(b1-4)GlcNAc(b1-2)Man(a1-6)]Man(b1-4)GlcNAc(b1-4)GlcNAc
# Summary of the method: as §1
# [30] = molecular target: Neu5Ac(a2-3)Gal(b1-4)GlcNAc(b1-2)[Neu5Ac(a2-3)Gal(b1-4)GlcNAc(b1-4)]Man(a1-3)[GlcNAc(b1-4)][Neu5Ac(a2-3)Gal(b1-4)GlcNAc(b1-2)[Neu5Ac(a2-3)Gal(b1-4)GlcNAc(b1-6)]Man(a1-6)]Man(b1-4)GlcNAc(b1-4)GlcNAc
# Summary of the method: as §1
# [31] = molecular target: Neu5Ac(a2-3)Gal(b1-4)GlcNAc(b1-2)[Neu5Ac(a2-3)Gal(b1-4)GlcNAc(b1-4)]Man(a1-3)[GlcNAc(b1-4)][Neu5Ac(a2-3)Gal(b1-4)GlcNAc(b1-4)Man(a1-6)]Man(b1-4)GlcNAc(b1-4)GlcNAc
# Summary of the method: as §1
# [32] = molecular target: Neu5Ac(a2-3)Gal(b1-4)GlcNAc(b1-2)[Neu5Ac(a2-3)Gal(b1-4)GlcNAc(b1-6)]Man(a1-6)[Neu5Ac(a2-3)Gal(b1-4)GlcNAc(b1-2)Man(a1-3)][GlcNAc(b1-4)]Man(b1-4)GlcNAc(b1-4)GlcNAc
# Summary of the method: as §1
# [33] = molecular target: Neu5Ac(a2-3)Gal(b1-4)GlcNAc(b1-3)Gal
# Summary of the method: as §1
# [34] = molecular target: Neu5Ac(a2-3)Gal(b1-4)GlcNAc(b1-3)Gal(b1-3)GlcNAc
# Summary of the method: as §1
# [35] = molecular target: Neu5Ac(a2-3)Gal(b1-4)GlcNAc(b1-3)Gal(b1-4)GlcNAc
# Summary of the method: as §1
# [36] = molecular target: Neu5Ac(a2-3)Gal(b1-4)GlcNAc(b1-3)Gal(b1-4)GlcNAc(b1-2)Man(a1-3)[Neu5Ac(a2-3)Gal(b1-4)GlcNAc(b1-3)Gal(b1-4)GlcNAc(b1-2)Man(a1-6)]Man(b1-4)GlcNAc(b1-4)GlcNAc
# Summary of the method: as §1
# [37] = molecular target: Neu5Ac(a2-3)Gal(b1-4)GlcNAc(b1-3)Gal(b1-4)GlcNAc(b1-3)Gal(b1-4)GlcNAc
# Summary of the method: as §1
# [38] = molecular target: Neu5Ac(a2-3)Gal(b1-4)GlcNAc(b1-3)Gal(b1-4)GlcNAc(b1-3)Gal(b1-4)GlcNAc(b1-2)Man(a1-3)[Neu5Ac(a2-3)Gal(b1-4)GlcNAc(b1-3)Gal(b1-4)GlcNAc(b1-3)Gal(b1-4)GlcNAc(b1-2)Man(a1-6)]GalNAc
# Summary of the method: as §1
# [39] = molecular target: Neu5Ac(a2-3)Gal(b1-4)GlcNAc(b1-3)Gal(b1-4)GlcNAc(b1-3)GalNAc
# Summary of the method: as §1
# [40] = molecular target: Neu5Ac(a2-3)Gal(b1-4)GlcNAc(b1-3)Gal(b1-4)GlcNAc(b1-3)[Neu5Ac(a2-3)Gal(b1-4)GlcNAc(b1-3)Gal(b1-4)GlcNAc(b1-6)]GalNAc
# Summary of the method: as §1
# [41] = molecular target: Neu5Ac(a2-3)Gal(b1-4)GlcNAc(b1-3)Gal(b1-4)GlcNAc(b1-6)[Gal(b1-3)]GalNAc
# Summary of the method: as §1
# [42] = molecular target: Neu5Ac(a2-3)Gal(b1-4)GlcNAc(b1-3)Gal(b1-4)[Fuc(a1-3)]GlcNAc
# Summary of the method: as §1
# [43] = molecular target: Neu5Ac(a2-3)Gal(b1-4)GlcNAc(b1-3)GalNAc
# Summary of the method: as §1
# [44] = molecular target: Neu5Ac(a2-3)Gal(b1-4)GlcNAc(b1-3)[Neu5Ac(a2-3)Gal(b1-4)GlcNAc(b1-6)]GalNAc
# Summary of the method: as §1
binder,measurement,setting,value
B1,glycan array binding signal (z-score),[1],-0.133
same,glycan array binding signal (z-score),[2],-0.281
same,glycan array binding signal (z-score),[3],-0.619
same,glycan array binding signal (z-score),[4],-0.295
same,glycan array binding signal (z-score),[5],-0.716
same,glycan array binding signal (z-score),[6],-0.433
same,glycan array binding signal (z-score),[7],-0.581
same,glycan array binding signal (z-score),[8],-0.82
same,glycan array binding signal (z-score),[9],-0.488
same,glycan array binding signal (z-score),[10],1.76
same,glycan array binding signal (z-score),[11],-0.026
same,glycan array binding signal (z-score),[12],-0.896
same,glycan array binding signal (z-score),[13],-0.868
same,glycan array binding signal (z-score),[14],-0.82
same,glycan array binding signal (z-score),[15],-0.419
same,glycan array binding signal (z-score),[16],-0.226
same,glycan array binding signal (z-score),[17],-0.73
same,glycan array binding signal (z-score),[18],-0.254
same,glycan array binding signal (z-score),[19],0.754
same,glycan array binding signal (z-score),[20],-0.578
same,glycan array binding signal (z-score),[21],-0.457
same,glycan array binding signal (z-score),[22],-0.012
same,glycan array binding signal (z-score),[23],-0.502
same,glycan array binding signal (z-score),Neu5Ac(a2-3)Gal(b1-4)Glc,-0.343
same,glycan array binding signal (z-score),[24],-0.002
same,glycan array binding signal (z-score),[25],1.55
same,glycan array binding signal (z-score),[26],-0.523
same,glycan array binding signal (z-score),[27],-0.578
same,glycan array binding signal (z-score),[28],-0.378
same,glycan array binding signal (z-score),[29],1.18
same,glycan array binding signal (z-score),[30],-0.502
same,glycan array binding signal (z-score),[31],-0.171
same,glycan array binding signal (z-score),[32],-0.281
same,glycan array binding signal (z-score),[33],-0.992
same,glycan array binding signal (z-score),[34],-0.958
same,glycan array binding signal (z-score),[35],-0.088
same,glycan array binding signal (z-score),[36],0.071
same,glycan array binding signal (z-score),[37],-0.102
same,glycan array binding signal (z-score),[38],2.06
same,glycan array binding signal (z-score),[39],-0.343
same,glycan array binding signal (z-score),[40],0.664
same,glycan array binding signal (z-score),[41],-0.585
same,glycan array binding signal (z-score),[42],-0.668
same,glycan array binding signal (z-score),[43],-0.122
same,glycan array binding signal (z-score),[44],-0.323

# Part of the list above, set out differently:
binder | measurement | setting | value
B1 | glycan array binding signal (z-score) | [39] | -0.343
same | glycan array binding signal (z-score) | [40] | 0.664
same | glycan array binding signal (z-score) | [41] | -0.585
